Test results reported in patent US20240150474A1 (Regeneron, published 2024).
Where a chain is given by its changes, count along the chain named. Results are given in words; binding and its absence hold for the method and conditions named. Some binding calls cover weakened binding; strength is not graded here.

Chains of the proteins cited; added tags and fusions are not shown. Residues count along the entry.
UniProt P37172, residues 21-123: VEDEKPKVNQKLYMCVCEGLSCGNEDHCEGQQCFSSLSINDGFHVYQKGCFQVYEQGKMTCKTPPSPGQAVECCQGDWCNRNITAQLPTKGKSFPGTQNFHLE

B1: REGN 5167 (antibody, human IgG4 S228P, kappa, V domains shown)
VH: QLQLQESGPGLVKPSETLSLTCTVSGGSITSSSYYWAWIRQPPGKGLEWIGKIYYSGSTHYNPSLKSRVTISVDTSKNQFSLKLSSVTAADTAVYYCARVGGHGYGDSAGLAFDIWGQGTMVTVSS
VL: EIVLTQSPGTLSLSPGERATLSCRASQSVSSAFLAWYQQKPGQAPRLLIYGASYRHTGIPDRFSGSGSGTDFTLTISRLEPEDFAVYYCQHYGVGPRTFGGGTKVEIKR
notes: also called REGN 5167-L1
B2: REGN 5168 (antibody, human IgG4 S228P, kappa, V domains shown)
VH: QVQLVQSGAEVKEPGASVKVSCKASGYTFAEYYMHWVRQAPGQGLEWMGAINPSGSHTSYAQKFQGRVTMTRDTSTSTVYMELSSLRSEDTAVYYCARSISGKRGGDYYGMDVWGQGTTVTVSS
VL: DIQMTQSPSTLSASVGDRVTITCRASQSISSWLAWYQQKPGKAPKLLIYKASSLESGVPSRFSGSGSGTEFTLTISSLQPDDFATYYCQQYSIFPFTFGGGTKVEIKR
notes: also called REGN 5168-L1

Experiments:
[1] = biological target: T1, dimeric human ACVR1 (human, UniProt Q04771 21-123, limits assumed); experiment: SPR Biacore T200, mAb captured by anti-human Fab, dimeric receptor injected, 25C
T1 construct: ACVR1'; also called Human Receptor ACVR1
T1 sequence (looked up): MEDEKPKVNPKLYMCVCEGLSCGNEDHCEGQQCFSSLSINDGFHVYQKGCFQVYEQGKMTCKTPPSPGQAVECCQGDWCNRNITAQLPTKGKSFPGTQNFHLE

[2] = biological target: T2, dimeric mouse ACVR1 (mouse, UniProt P37172 21-123, limits assumed); experiment: as above
T2 construct: also called Mouse Receptor ACVR1
T2 sequence (looked up): T1 sequence (looked up) with M1V, P10Q

Binder | binding [1] | binding [2]
B1 | binds | binds
B2 | binds | binds
